Results: article PMC6983240
Results are given in words; binding and its absence hold for the method and conditions named. In cells and extracts the contact can be indirect. A result given as binding can be weak or reduced; the word gives no strength. For some assays here: Sequences can lack the tags named with a protein.

Chains of the proteins cited; added tags and fusions are not shown. Lines headed by an entry give the natural chain unless they say otherwise; changes in a name come on top.
UniProt A6IDY9: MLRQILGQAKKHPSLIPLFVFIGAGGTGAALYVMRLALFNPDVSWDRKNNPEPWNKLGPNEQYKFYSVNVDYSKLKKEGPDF

Key:
[1] = molecular target: T1, DJ-1 (rat (endogenous in H9c2)) (UniProt O88767); experiment: co-IP; H9c2 mitochondrial lysates (H/R, HPC + H/R, pFlag-DJ-1 + H/R, each with or without LV-shGrp75 knock-down); IP with anti-DJ-1 antibody or IgG, blot with anti-NDUFA4 or anti-ND1
T1 sequence: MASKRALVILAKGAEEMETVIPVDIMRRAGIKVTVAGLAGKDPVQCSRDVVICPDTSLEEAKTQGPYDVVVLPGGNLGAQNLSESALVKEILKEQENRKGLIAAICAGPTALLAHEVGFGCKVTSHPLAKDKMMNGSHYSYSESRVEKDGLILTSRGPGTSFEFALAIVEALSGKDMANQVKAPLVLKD

[2] = molecular target: T2, Flag-DJ-1 (from plasmid pFlag-DJ-1) (UniProt O88767); experiment: as above
T2 sequence: T1 sequence

- binding [1]: binds
- binding [2]: binds
Substance: NDUFA4 subunit of mitochondrial complex I (from UniProt A6IDY9)
